Measurements reported in PubChem BioAssay AID1259254 (NCATS, 2017).

Screen: 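Gene knock-downs that lead to re-replication, shown by excess G2 DNA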 (primary screen)
Cell system: human HCT116 colorectal cancer cells
Reagents: single siRNA against human genes
Timing: 3 days
Read-out: 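Imaged Hoechst DNA stain sorts each cell into a cycle phase by DNA amount; per plate, G2 fraction set to 0% for non-targeting and 100% for GMNN siRNA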
Scale: G2 robust z-score: higher = more G2 cells, more excess DNA replication
Hit rule: 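Active siRNAs have a G2 robust z of 5 or more median absolute deviations over the median, which in these data means about 38% or higher of GMNN control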
The deposit covers about 59,000 reagents; shown is a part drawn at random. About 1,550 of them (2.6%) were called active. 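G2 share is only a proxy for re-replication; each gene was hit by three separate siRNAs, and active genes were retested.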 Reagents against one gene are numbered here. Not all columns of the deposit are shown. Reagent sequences are not shown. Not given: the amount of reagent.

The first 2 entries, to show the layout:
AGBL1 (AGBL carboxypeptidase 1) #1: G2 robust z-score = 1.9; Call = inactive
AGBL1 (AGBL carboxypeptidase 1) #2: G2 robust z-score = 3.74; Call = inactive

The listing, from the first entry:
AGBL1 (AGBL carboxypeptidase 1) #1: G2 robust z-score = 1.9; Call = inactive
AGBL1 (AGBL carboxypeptidase 1) #2: G2 robust z-score = 3.74; Call = inactive
AGBL1 (AGBL carboxypeptidase 1) #3: G2 robust z-score = -0.91; Call = inactive
MX2 (MX dynamin like GTPase 2) #1: G2 robust z-score = -0.337; Call = inactive
MX2 (MX dynamin like GTPase 2) #2: G2 robust z-score = -0.637; Call = inactive
MX2 (MX dynamin like GTPase 2) #3: G2 robust z-score = -0.494; Call = inactive
DDX5 (DEAD-box helicase 5) #1: G2 robust z-score = -0.312; Call = inactive
DDX5 (DEAD-box helicase 5) #2: G2 robust z-score = -0.526; Call = inactive
DDX5 (DEAD-box helicase 5) #3: G2 robust z-score = -0.586; Call = inactive
SAMD9L (sterile alpha motif domain containing 9 like) #1: G2 robust z-score = 0.683; Call = inactive
SAMD9L (sterile alpha motif domain containing 9 like) #2: G2 robust z-score = -0.0396; Call = inactive
SAMD9L (sterile alpha motif domain containing 9 like) #3: G2 robust z-score = 1.93; Call = inactive
TDRG1 (testis development regulator, piRNA precursor) #1: G2 robust z-score = 0.315; Call = inactive
TDRG1 (testis development regulator, piRNA precursor) #2: G2 robust z-score = 0.0637; Call = inactive
TDRG1 (testis development regulator, piRNA precursor) #3: G2 robust z-score = 0.226; Call = inactive
ADAD1 (adenosine deaminase domain containing 1) #1: G2 robust z-score = 2.53; Call = inactive
ADAD1 (adenosine deaminase domain containing 1) #2: G2 robust z-score = -0.623; Call = inactive
ADAD1 (adenosine deaminase domain containing 1) #3: G2 robust z-score = -0.271; Call = inactive
